Data as given in article PMC11605229.
No constants are given. Whether binding was seen depends on the method and setting. In cells and extracts the contact can be indirect. Here binding means that the protein was enriched with, or labelled near, the bait; the list need not be complete.

Each binder was assayed against BioID-BAG3 (UniProt O95817) (assay: proximity labelling; BioID in human AC16 cardiomyocyte cells: transfected with plasmid expressing BioID-BAG3 for 48 h, biotin for 16 h; LC-MS/MS; BAG3_Biotin vs. BioID vector only, adjusted p < 0.05; effect sizes corrected for biotin alone and for BAG3 over-expression; three replicates).

Binder | binding
EBNA1BP2 (protein, UniProt Q99848 1-306) MDTPPLSDSESESDESLVTDRELQDAFSRGLLKPGLNVVLEGPKKAVNDVNGLKQCLAEFKRDLEWVERLDVTLGPVPEIGGSEAPAPQNKDQKAVDPEDDFQREMSFYRQAQAAVLAVLPRLHQLKVPTKRPTDYFAEMAKSDLQMQKIRQKLQTKQAAMERSEKAKQLRALRKYGKKVQTEVLQKRQQEKAHMMNAIKKYQKGFSDKLDFLEGDQKPLAQRKKAGAKGQQMRKGPSAKRRYKNQKFGFGGKKKGSKWNTRESYDDVSSFRAKTAHGRGLKRPGKKGSNKRPGKRTREKMKNRTH | binds
ZC3H14 (protein, UniProt Q6PJT7 1-736) MEIGTEISRKIRSAIKGKLQELGAYVDEELPDYIMVMVANKKSQDQMTEDLSLFLGNNTIRFTVWLHGVLDKLRSVTTEPSSLKSSDTNIFDSNVPSNKSNFSRGDERRHEAAVPPLAIPSARPEKRDSRVSTSSQESKTTNVRQTYDDGAATRLMSTVKPLREPAPSEDVIDIKPEPDDLIDEDLNFVQENPLSQKKPTVTLTYGSSRPSIEIYRPPASRNADSGVHLNRLQFQQQQNSIHAAKQLDMQSSWVYETGRLCEPEVLNSLEETYSPFFRNNSEKMSMEDENFRKRKLPVVSSVVKVKKFNHDGEEEEEDDDYGSRTGSISSSVSVPAKPERRPSLPPSKQANKNLILKAISEAQESVTKTTNYSTVPQKQTLPVAPRTRTSQEELLAEVVQGQSRTPRISPPIKEEETKGDSVEKNQGTQQRQLLSRLQIDPVMAETLQMSQDYYDMESMVHADTRSFILKKPKLSEEVVVAPNQESGMKTADSLRVLSGHLMQTRDLVQPDKPASPKFIVTLDGVPSPPGYMSDQEEDMCFEGMKPVNQTAASNKGLRGLLHPQQLHLLSRQLEDPNGSFSNAEMSELSVAQKPEKLLERCKYWPACKNGDECAYHHPISPCKAFPNCKFAEKCLFVHPNCKYDAKCTKPDCPFTHVSRRIPVLSPKPAVAPPAPPSSSQLCRYFPACKKMECPFYHPKHCRFNTQCTRPDCTFYHPTINVPPRHALKWIRPQTSE | binds
ECSIT (protein, UniProt Q9BQ95 49-431) SSEQSLVPSPPEPRQRPTKALVPFEDLFGQAPGGERDKASFLQTVQKFAEHSVRKRGHIDFIYLALRKMREYGVERDLAVYNQLLNIFPKEVFRPRNIIQRIFVHYPRQQECGIAVLEQMENHGVMPNKETEFLLIQIFGRKSYPMLKLVRLKLWFPRFMNVNPFPVPRDLPQDPVELAMFGLRHMEPDLSARVTIYQVPLPKDSTGAADPPQPHIVGIQSPDQQAALARHNPARPVFVEGPFSLWLRNKCVYYHILRADLLPPEEREVEETPEEWNLYYPMQLDLEYVRSGWDNYEFDINEVEEGPVFAMCMAGAHDQATMAKWIQGLQETNPTLAQIPVVFRLAGSTRELQTSSAGLEEPPLPEDHQEEDDNLQRQQQGQS | binds
TSC1 (protein, UniProt Q92574 1-1164) MAQQANVGELLAMLDSPMLGVRDDVTAVFKENLNSDRGPMLVNTLVDYYLETSSQPALHILTTLQEPHDKHLLDRINEYVGKAATRLSILSLLGHVIRLQPSWKHKLSQAPLLPSLLKCLKMDTDVVVLTTGVLVLITMLPMIPQSGKQHLLDFFDIFGRLSSWCLKKPGHVAEVYLVHLHASVYALFHRLYGMYPCNFVSFLRSHYSMKENLETFEEVVKPMMEHVRIHPELVTGSKDHELDPRRWKRLETHDVVIECAKISLDPTEASYEDGYSVSHQISARFPHRSADVTTSPYADTQNSYGCATSTPYSTSRLMLLNMPGQLPQTLSSPSTRLITEPPQATLWSPSMVCGMTTPPTSPGNVPPDLSHPYSKVFGTTAGGKGTPLGTPATSPPPAPLCHSDDYVHISLPQATVTPPRKEERMDSARPCLHRQHHLLNDRGSEEPPGSKGSVTLSDLPGFLGDLASEEDSIEKDKEEAAISRELSEITTAEAEPVVPRGGFDSPFYRDSLPGSQRKTHSAASSSQGASVNPEPLHSSLDKLGPDTPKQAFTPIDLPCGSADESPAGDRECQTSLETSIFTPSPCKIPPPTRVGFGSGQPPPYDHLFEVALPKTAHHFVIRKTEELLKKAKGNTEEDGVPSTSPMEVLDRLIQQGADAHSKELNKLPLPSKSVDWTHFGGSPPSDEIRTLRDQLLLLHNQLLYERFKRQQHALRNRRLLRKVIKAAALEEHNAAMKDQLKLQEKDIQMWKVSLQKEQARYNQLQEQRDTMVTKLHSQIRQLQHDREEFYNQSQELQTKLEDCRNMIAELRIELKKANNKVCHTELLLSQVSQKLSNSESVQQQMEFLNRQLLVLGEVNELYLEQLQNKHSDTTKEVEMMKAAYRKELEKNRSHVLQQTQRLDTSQKRILELESHLAKKDHLLLEQKKYLEDVKLQARGQLQAAESRYEAQKRITQVFELEILDLYGRLEKDGLLKKLEEEKAEAAEAAEERLDCCNDGCSDSMVGHNEEASGHNGETKTPRPSSARGSSGSRGGGGSSSSSSELSTPEKPPHQRAGPFSSRWETTMGEASASIPTTVGSLPSSKSFLGMKARELFRNKSESQCDEDGMTSSLSESLKTELGKDLGVEAKIPLNLDGPHPSPPTPDSVGQLHIMDYNETHHEHS | binds

Continued, values first:

binding | Binder
binds | PARN (protein, UniProt O95453 1-639) MEIIRSNFKSNLHKVYQAIEEADFFAIDGEFSGISDGPSVSALTNGFDTPEERYQKLKKHSMDFLLFQFGLCTFKYDYTDSKYITKSFNFYVFPKPFNRSSPDVKFVCQSSSIDFLASQGFDFNKVFRNGIPYLNQEEERQLREQYDEKRSQANGAGALSYVSPNTSKCPVTIPEDQKKFIDQVVEKIEDLLQSEENKNLDLEPCTGFQRKLIYQTLSWKYPKGIHVETLETEKKERYIVISKVDEEERKRREQQKHAKEQEELNDAVGFSRVIHAIANSGKLVIGHNMLLDVMHTVHQFYCPLPADLSEFKEMTTCVFPRLLDTKLMASTQPFKDIINNTSLAELEKRLKETPFNPPKVESAEGFPSYDTASEQLHEAGYDAYITGLCFISMANYLGSFLSPPKIHVSARSKLIEPFFNKLFLMRVMDIPYLNLEGPDLQPKRDHVLHVTFPKEWKTSDLYQLFSAFGNIQISWIDDTSAFVSLSQPEQVKIAVNTSKYAESYRIQTYAEYMGRKQEEKQIKRKWTEDSWKEADSKRLNPQCIPYTLQNHYYRNNSFTAPSTVGKRNLSPSQEEAGLEDGVSGEISDTELEQTDSCAEPLSEGRKKAKKLKRMKKELSPAGSISKNSPATLFEVPDTW
binds | RND3 (protein, UniProt P61587 1-244) MKERRASQKLSSKSIMDPNQNVKCKIVVVGDSQCGKTALLHVFAKDCFPENYVPTVFENYTASFEIDTQRIELSLWDTSGSPYYDNVRPLSYPDSDAVLICFDISRPETLDSVLKKWKGEIQEFCPNTKMLLVGCKSDLRTDVSTLVELSNHRQTPVSYDQGANMAKQIGAATYIECSALQSENSVRDIFHVATLACVNKTNKNVKRNKSQRATKRISHMPSRPELSAVATDLRKDKAKSCTVM
binds | KHSRP (protein, UniProt Q92945 1-711) MSDYSTGGPPPGPPPPAGGGGGAGGAGGGPPPGPPGAGDRGGGGPGGGGPGGGSAGGPSQPPGGGGPGIRKDAFADAVQRARQIAAKIGGDAATTVNNSTPDFGFGGQKRQLEDGDQPESKKLASQGDSISSQLGPIHPPPRTSMTEEYRVPDGMVGLIIGRGGEQINKIQQDSGCKVQISPDSGGLPERSVSLTGAPESVQKAKMMLDDIVSRGRGGPPGQFHDNANGGQNGTVQEIMIPAGKAGLVIGKGGETIKQLQERAGVKMILIQDGSQNTNVDKPLRIIGDPYKVQQACEMVMDILRERDQGGFGDRNEYGSRIGGGIDVPVPRHSVGVVIGRSGEMIKKIQNDAGVRIQFKQDDGTGPEKIAHIMGPPDRCEHAARIINDLLQSLRSGPPGPPGGPGMPPGGRGRGRGQGNWGPPGGEMTFSIPTHKCGLVIGRGGENVKAINQQTGAFVEISRQLPPNGDPNFKLFIIRGSPQQIDHAKQLIEEKIEGPLCPVGPGPGGPGPAGPMGPFNPGPFNQGPPGAPPHAGGPPPHQYPPQGWGNTYPQWQPPAPHDPSKAAAAAADPNAAWAAYYSHYYQQPPGPVPGPAPAPAAPPAQGEPPQPPPTGQSDYTKAWEEYYKKIGQQPQQPGAPPQQDYTKAWEEYYKKQAQVATGGGPGAPPGSQPDYSAAWAEYYRQQAAYYGQTPGPGGPQPPPTQQGQQQAQ
binds | NFKB2 (protein, UniProt Q00653 1-900) MESCYNPGLDGIIEYDDFKLNSSIVEPKEPAPETADGPYLVIVEQPKQRGFRFRYGCEGPSHGGLPGASSEKGRKTYPTVKICNYEGPAKIEVDLVTHSDPPRAHAHSLVGKQCSELGICAVSVGPKDMTAQFNNLGVLHVTKKNMMGTMIQKLQRQRLRSRPQGLTEAEQRELEQEAKELKKVMDLSIVRLRFSAFLRASDGSFSLPLKPVISQPIHDSKSPGASNLKISRMDKTAGSVRGGDEVYLLCDKVQKDDIEVRFYEDDENGWQAFGDFSPTDVHKQYAIVFRTPPYHKMKIERPVTVFLQLKRKRGGDVSDSKQFTYYPLVEDKEEVQRKRRKALPTFSQPFGGGSHMGGGSGGAAGGYGGAGGGGSLGFFPSSLAYSPYQSGAGPMGCYPGGGGGAQMAATVPSRDSGEEAAEPSAPSRTPQCEPQAPEMLQRAREYNARLFGLAQRSARALLDYGVTADARALLAGQRHLLTAQDENGDTPLHLAIIHGQTSVIEQIVYVIHHAQDLGVVNLTNHLHQTPLHLAVITGQTSVVSFLLRVGADPALLDRHGDSAMHLALRAGAGAPELLRALLQSGAPAVPQLLHMPDFEGLYPVHLAVRARSPECLDLLVDSGAEVEATERQGGRTALHLATEMEELGLVTHLVTKLRANVNARTFAGNTPLHLAAGLGYPTLTRLLLKAGADIHAENEEPLCPLPSPPTSDSDSDSEGPEKDTRSSFRGHTPLDLTCSTKVKTLLLNAAQNTMEPPLTPPSPAGPGLSLGDTALQNLEQLLDGPEAQGSWAELAERLGLRSLVDTYRQTTSPSGSLLRSYELAGGDLAGLLEALSDMGLEEGVRLLRGPETRDKLPSTAEVKEDSAYGSQSVEQEAEKLGPPPEPPGGLCHGHPQPQVH
binds | RBM34 (protein, UniProt P42696 1-430) MALEGMSKRKRKRSVQEGENPDDGVRGSPPEDYRLGQVASSLFRGEHHSRGGTGRLASLFSSLEPQIQPVYVPVPKQTIKKTKRNEEEESTSQIERPLSQEPAKKVKAKKKHTNAEKKLADRESALASADLEEEIHQKQGQKRKNSQPGVKVADRKILDDTEDTVVSQRKKIQINQEEERLKNERTVFVGNLPVTCNKKKLKSFFKEYGQIESVRFRSLIPAEGTLSKKLAAIKRKIHPDQKNINAYVVFKEESAATQALKRNGAQIADGFRIRVDLASETSSRDKRSVFVGNLPYKVEESAIEKHFLDCGSIMAVRIVRDKMTGIGKGFGYVLFENTDSVHLALKLNNSELMGRKLRVMRSVNKEKFKQQNSNPRLKNVSKPKQGLNFTSKTAEGHPKSLFIGEKAVLLKTKKKGQKKSGRPKKQRKQK
